# Measured values: publication PMC12370185
# The other results are listed elsewhere or left out. For part of these data: At the low end of the ranking the order means little.
# Key:
# Conditions in all cases: 10 mM Tris-Cl pH 7.5, 50 mM NaCl, 1 mM DTT, 0.25 mg/ml BSA, 2 mM MgCl2, 0.025% Nonidet P-40, 5% glycerol; 28 nM nucleosome library; 10 min on ice then 30 min …; high values mean tight binding; double strand, one strand shown
# KLF4 + histone octamer = experiment: EMSA with sequencing
# SOX2 + histone octamer [1] = experiment: EMSA with sequencing
# OCT4 + histone octamer = experiment: Pioneer-seq (competitive nucleosome EMSA with sequencing)
# [2] = system: c-MYC + MAX + histone octamer; experiment: as above
# [3] = system: c-MYC + MAX + histone octamer; experiment: EMSA with sequencing
# SOX2 + histone octamer [4] = experiment: Pioneer-seq (competitive nucleosome EMSA with sequencing)
Sequence,binding signal (log2 relative supershift) (KLF4 + histone octamer),binding signal (log2 relative supershift) (SOX2 + histone octamer [1]),binding signal (log2 relative supershift) (OCT4 + histone octamer),binding signal (log2 relative supershift) [2],binding signal (log2 relative supershift) [3],binding signal (log2 relative supershift) (SOX2 + histone octamer [4])
GATGGACCCTATACGCGGCGCCGTTGTCTTCTTATGCAAGAATAAGGTACGTCTTTCCATCCACTCACGTCTATTTAATTTGACTTTGCATTACACAGAAAGCTGGTCTTGGTCTGTCTACCTCGGCATCTAGTTGTCCTCACTGCCCCCTAGCCGACCCCACCCCATCTGACTGACTACCCCATCACAGAGTACTTTTATTTACGTTTTTGCCAGTCGGATAGTGTTCC,0.732,0.915,-0.207,-0.23,–,–
GATGGACCCTATACGCGGCTCCTACAATCAGTGTGAACATGGGCAACTCAGAAAATTTCTAATTAATTCATCAAATACCTTTTAAGGACCTATTGCGTCTAAGGTTCTGTGCTAGGCTGTAAGGCTCAATGTCTTACATTGTAATGCAGGGACAATACCAACTATGGCAGAGAGTTGTGATGATCAAAGTGGGCAAAGATTACAGATTATTGCCAGTCGGATAGTGTTCC,0.812,0.214,-0.419,-0.191,–,–
GATGGACCCTATACGCGGCAGCTGCATTTGGGACCTTATGGGAAAGTCTGTAAAATTTGCTGTCTTTATTTGCCCTTTAGAGAAAACAGTTTGCTGACCCCTGCACTACAGAGGTTAAGGAGTCCTCCCTCCCTCCCAAGGACCTGTATAGGCACGAAGGCCAGAGGAGCTGTTCTTATCTATGAAAGCTTCCTGGAGTGGATTTCGTGGTGCCAGTCGGATAGTGTTCC,0.806,0.413,-0.309,-0.07,–,–
GATGGACCCTATACGCGGCATGCTGTCTCTCTCACACATACACACATGGGCACATTCACAGGGATGCATACACGCCCCCACACCACATGCTTCCATACACATATGCATACATGAGGGCACATACACACGCCCATGCCACATGCTCACACACATACATGGGCACATACACAGGGGTGCATACACACCCATACCACCTCCTCTCACACACACTGCCAGTCGGATAGTGTTCC,1.03,–,-1.41,–,0.982,-0.434
GATGGACCCTATACGCGGCCAGGGTGAAAAGACTGGCCAGACATTTTCTGGAAAGAGGCAGGCTAAGCAGGAGCTTGGTAAACAAAAGCAGGAAATGGAGCGTTCAGAACATCCACAGACGTGTTCAGACATGCAGGCCCCTGCCGGGCTGCAGAGAGTATGACAATTCGGGCTTGTGTGGTGTGGAGGTACCCAATGGGATGGGACCCCTGCCAGTCGGATAGTGTTCC,1.8,0.995,-0.805,-0.0713,–,–
GATGGACCCTATACGCGGCTCTAACAACAATTTATATGTGTATGTGCCAAGATAGGGGGGTGGGTTTCCTGAGGGCTGGAGACAGGACAGGTATGACCATGCACAGCCGCATTCTTTGGCAGAGAACACACATGATTCCCCCAAATATGTTTCTGGAAACGGAATTGAGTCTGTTCTGTGCTGAGATCTTTGACTTTCTTGAGGACAAAATGCCAGTCGGATAGTGTTCC,0.492,0.665,-0.536,-0.438,–,–
GATGGACCCTATACGCGGCCCACAGGACTGGAGCCATCCCCAAGGTGAGTGTCAGGATGTTTTGAAACTGGGACACACTGTACAGGGGTGAACAAAGGAATCTGCTTTTCAATACCACACTGCCTGCTGCAACCAAATGTCACTGCAGGGCTTAACAGTGAGTAAATGCTGTGTGTGTAAATGCTTCTTCTATGTTTAAAAAACAGGAAATGCCAGTCGGATAGTGTTCC,0.955,0.309,-0.307,-0.0712,–,–
GATGGACCCTATACGCGGCAAAATCACAACCTACAAGTACAGAAGAGATTGCTACAGAGAAGGGTGGTGCTCCACACTCAGAGGCATGAATAAAAGGCCTAAGAGAGCACACAAGGCAATGATTAAGATGCAAATACGCCTTTCAGGTTGGCTCCTTCCTATCTTTCCATCTTGTGCTAAGCAGTGAGAAGAAAAATATTTATCCACAGCTGCCAGTCGGATAGTGTTCC,0.642,0.0813,-0.0814,-0.0592,–,–
GATGGACCCTATACGCGGCGGGAGACCAGGCGTCCTGGTCCCTTCCTTCTGTCTCCGGCTCCCGCCCCCCAAGCAGAAACAGGTCCCTGCACGCCTCCAGCCCAGCCCGCAGCGCGGCGCAGCTCGGCGCAGCTCGGCGCTGGGAGCTCGCTCCGGACTTCTCGGGATTAACCTGCTATTATGTCCCGGAGCCCTTCCCTGCAATGGGCTTGCCAGTCGGATAGTGTTCC,1.22,1.29,-0.174,-0.099,–,–
GATGGACCCTATACGCGGCCCTCCCTGGGCATACCTGGTGGCATCAGGCCTGATCCTCTACAATGTCTGTCCCTGCCCTTGCCTGCTACTTCCAGGCCTACCTCCAGCCCAGACCTGCCCAGGCCTGCCCAGGCCCTGCTCTACCCTGATGCTCTGTGGCTCTGTTCCTGGGACTCTTCCTGGGAGACAGAAGGGAGATGAGAGCTCAAGTGCCAGTCGGATAGTGTTCC,1.94,–,-0.687,–,0.2,-0.527
GATGGACCCTATACGCGGCGACATTGAATCCCCTCACTATAATCTGAATGTGATTTATTATCCCCTTAAAGAGGGGCATCCATACAGGCATGGTCTAATCCCTTGCAATTCAAAGTGTAATCCAAAAGCCAGTAGCATTTGCATCACTTGGGAGCCTGTTACAAATGCACAACCTCAGACCCACCCCACACCTACTGAATCAAGATCCACTGCCAGTCGGATAGTGTTCC,1.98,0.551,-0.112,-0.062,–,–
GATGGACCCTATACGCGGCCTACAATAATGATGTACAACATCCATCCTCACACTCAGGCAATAAGCTTTGTTTCTCATGCTCATGGGCAAGTGGTTCAGCTGAGTGGCTCTGCATCAGGCTGCAGTTGTTCAGTTGCCTGTAGTAGTTTGCAAGGGACTGAATGTGTCACCCCTCCCCCATTCATATGTTGAAAGCCTAACCTTCAATGTTGCCAGTCGGATAGTGTTCC,1.35,0.966,-0.5,-0.232,–,–
GATGGACCCTATACGCGGCGATACCACAAAAAGCACAGTTTCATAGGTCAGTTTAATTCTATAGCAGTCTTTTTTGTCAGCATAGCTGGCGATTCCATCTGTTTTAATTTAAGATTCACCCCAGCCATGCCTCTGTAGCAGGTGACACGTGCACACACACACACACCCCCACACCCACACACTGTTTCCTTATGTAACATACATGATGTATGCCAGTCGGATAGTGTTCC,0.253,1.16,-0.71,-0.0566,–,–
GATGGACCCTATACGCGGCATTTCTGTAGGACCCACCCACCTTCCACCCACATCTCCTCTCTAACCCCCGCTCCCAGTGCCTCACCTCCTGGCCTAAGCCCCGCCCATGAGCCATCCGACCCTGCCTCCCTAGGGTAACAAGGGTGGCGTGAGCGTGCGCCTGGCGGCCTTCGGGCACATGCTCTGCTTCCTGAACTGCCACTTGCCTGCTGCCAGTCGGATAGTGTTCC,2.43,–,-1.07,–,1.02,-0.726
GATGGACCCTATACGCGGCTACACACACGCGCACACCCATACACACGCACCATCTAACACAGTTTGTTCTGCCTAAACTTGGAGGCCCCAGCCATGGCTGGACGAATGCAAAAGAGGAGCAGTGGTGCGAATGAGGCAGTGACCATGCCAGGCCAGAGAACTGGGGCTGCCCACTGCTACTCCTCACTGAGTTGCCCTTGGCTTGTGCTATGCCAGTCGGATAGTGTTCC,2.28,–,-0.0652,–,0.881,-0.175
GATGGACCCTATACGCGGCATGGCCTGAGACTCCTGGCCTCTTTCCAACCTAGGGACCACCTGCCACCCCACCCAAACCTCAAGCATGCTGTTGTGTGGCTTCTGCATCCACCCCACCTCAGCTGTGTCTGCGTCACTGGGCAGATGTAGGGATCCCCGTGTACCATGCGCACATGGCCTTGTTTGTGATTAGTGGGGCCCCGAGGGAAATGCCAGTCGGATAGTGTTCC,1.97,–,-0.982,–,1.13,-0.426
GATGGACCCTATACGCGGCAGTAAGGTGGGCCCTTCACACCATGTGACTGGTATCCTTAAAAGAAGAAGAGACTCAGAGGGAAGACAGCCATGTGCAGCTGGAATGATGCATCTGAAGCCAAGGAATGCCACGCATTGCCAGCCACCACCCAAAACTGGAAAAAGTCAGGAAGGATTCTTCCCTAGAACCTTCAAAGGCAGCACAGCCCTTGCCAGTCGGATAGTGTTCC,2.53,–,-0.895,–,0.046,-0.175
GATGGACCCTATACGCGGCATACATGGCACATACATTTGCCAAAACCAGTGAAATTTACAACACCAAGCATGAACCCTAATGTAAACGCATACTTTGAGTGATAATGATGTGTCTACGTTGGTTCATCAGCTGCAGCAAATGTACCACACTGGTGTGGACAGTGGGGAAGCCTGTGGGTGTAAGGGGAGGGAGTATATGGGAACTGTCTGTGCCAGTCGGATAGTGTTCC,0.432,–,-0.259,–,0.317,-0.0699
GATGGACCCTATACGCGGCAGCATGATTCTCGCGATCCGCAGGGCCTCTCGGCTGCTGATCTTCAGCTGGTTGCTGAGAGTTGCAGCATTGCTGAGTCTTAGCAATGGATACTTCCCGATTCCCCTCACAAAAATAGGTCAGTCTGTCTGGCTAGTTCTGTACTTGCAGACACAGGGCATGTGGGGTTCCGGATCCAGCGACTTTACCGGTGCCAGTCGGATAGTGTTCC,0.102,–,-0.374,–,0.68,-0.291
GATGGACCCTATACGCGGCTGGGGTCTGGATGCCTGGTGTGGCCTCATGCAGACTCTCTGGGCAGGTACCACAGTATGACGCGACAGCTGCTCCGCAAGGCTGACGGGGTGGTGCTCATGTACGACATCACCTCCCAGGAGAGCTTTGCCCACGTGCGCTACTGGCTAGACTGTCTCCAGGTGAGCAGATGGCTGCTGGGGTTGGCCCCATGCCAGTCGGATAGTGTTCC,2.14,–,-0.0218,–,1.11,-0.434
GATGGACCCTATACGCGGCGAAAGCTAGCAGGAGGCGTTGCTCAAGTTCAAAACAATCTGTGCGTGTCCAGGCACGCGCGGAGCCAGACCCCAGCCGCGCGGCTCAGACCTCGCGAGAGCCATCACCTGAGAAATCCACAGCCTTTTCTCATCAGGCTTAGACTGTTTTTCCCATACCTCCAAGAAGGAAGACCCACATGTTAAAACTATTGCCAGTCGGATAGTGTTCC,1.51,–,-0.0483,–,0.606,-0.192

# Quoted from the listing:
# binding signal (log2 relative supershift) (OCT4 + histone octamer) with GATGGACCCTATACGCGGCGACATTGAATCCCCTCACTATAATCTGAATGTGATTTATTATCCCCTTAAAGAGGGGCATCCATACAGGCATGGTCTAATCCCTTGCAATTCAAAGTGTAATCCAAAAGCCAGTAGCATTTGCATCACTTGGGAGCCTGTTACAAATGCACAACCTCAGACCCACCCCACACCTACTGAATCAAGATCCACTGCCAGTCGGATAGTGTTCC reads -0.112
# binding signal (log2 relative supershift) [3] with GATGGACCCTATACGCGGCTACACACACGCGCACACCCATACACACGCACCATCTAACACAGTTTGTTCTGCCTAAACTTGGAGGCCCCAGCCATGGCTGGACGAATGCAAAAGAGGAGCAGTGGTGCGAATGAGGCAGTGACCATGCCAGGCCAGAGAACTGGGGCTGCCCACTGCTACTCCTCACTGAGTTGCCCTTGGCTTGTGCTATGCCAGTCGGATAGTGTTCC reads 0.881
